Laboratory results taken from article PMC5014341.
These are yes or no findings as the source states them, for the method shown. For some assays here: Binding seen in cells or lysates may run through a third protein. For some assays here: Where a sequence is shown, tags or fusion partners need not be part of it.

Amino acid sequences for entries named in this document (tags omitted). Residues count along the entry.
UniProt P9WIN9, residues 25-228: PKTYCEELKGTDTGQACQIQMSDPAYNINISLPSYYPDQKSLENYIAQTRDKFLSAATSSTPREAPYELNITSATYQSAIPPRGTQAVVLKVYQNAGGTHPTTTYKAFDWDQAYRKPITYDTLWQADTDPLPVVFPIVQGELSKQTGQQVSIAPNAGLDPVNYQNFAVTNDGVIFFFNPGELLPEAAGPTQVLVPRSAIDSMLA

Experiments:
[1] = target: T1, 6xHis-2xFlag-RsiV^(59-285, S169W, P259A, Y261A) (B. subtilis) (UniProt O05403); test: ITC; HEW lysozyme (0.1 mM) injected into 6xHis-2xFlag-RsiV^59-285 or mutant (0.01 mM) in the cell; 50 mM Na2HPO4, 200 mM NaCl, pH 7.0; 25°C; single site binding model; averaged from three runs from two protein preps; both purified
T1 sequence: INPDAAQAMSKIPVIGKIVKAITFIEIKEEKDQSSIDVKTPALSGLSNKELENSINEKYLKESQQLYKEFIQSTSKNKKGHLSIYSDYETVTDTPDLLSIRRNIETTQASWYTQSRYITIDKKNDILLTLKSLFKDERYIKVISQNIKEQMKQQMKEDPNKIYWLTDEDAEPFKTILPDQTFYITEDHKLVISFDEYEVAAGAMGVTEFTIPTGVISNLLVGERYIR

[2] = target: 6xHis-Rv1980c (M. tuberculosis) (UniProt P9WIN9); test: pull-down

In the case of “hen egg white (HEW) lysozyme (from UniProt P00698 19-147) (enzyme)”, the binding [1] is reported as “no binding (tested: >50 μM)” and the binding [2] is reported as “no binding”.
